Measurements reported in JP2005168497A.
No constants are given. Whether binding was seen depends on the method and setting. Some binding calls cover weakened binding; strength is not graded here.

The chains behind the UniProt entries cited, without tags or fusion partners. Residues count along the entry.
UniProt O14763, residues 56-210: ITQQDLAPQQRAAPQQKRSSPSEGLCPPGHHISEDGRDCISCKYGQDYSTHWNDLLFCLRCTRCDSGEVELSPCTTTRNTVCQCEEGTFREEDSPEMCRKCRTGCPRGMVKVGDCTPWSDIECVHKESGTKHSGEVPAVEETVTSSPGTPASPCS

Target: TRAIL-R2-hFc (ヒトTRAIL-R2の細胞外領域とヒトIgG1のFc領域とが融合したタンパク質, ALEXIS社製) (human) (UniProt O14763)
Test: ELISA, purified antibody on plate-coated TRAIL-R2-hFc (Example 4)

- binding: binds
B1: KMTR1抗体 (ハイブリドーマKMTR1, FERM BP-8038 の産生するヒトモノクローナル抗体) (antibody, V domains shown)
VH: EVQLLESGGGLVQPGRSLRLSCAASGFTFSSYAMSWVRQAPGKGLEWVSAISGSGGSRYYADSVKGRFTISRDNSKNTLYLQMNSLRAEDTAVYYCAKESSGWFGAFDYWGQGTLVTVSS
VL: EIVLTQSPDFQSVTPKEKVTITCRASQSIGSSLHWYQQKPDQSPKLLIKYASQSFSGVPSRFSGSGSGTDFTLTINSLEAEDAAAYYCHQSSSLPITFGQGTRLEIK
